Source: PubChem BioAssay AID2685 (National Center for Advancing Translational Sciences (NCATS), 2010)
Some of the results follow. Further columns of the screen follow, without active or inactive calls. Most of these compounds were active or inconclusive in the main read-out, so they are no random draw. Potencies come from curve fits of mixed quality, noted in brackets.

Test: qHTS Assay for Lipid Storage Modulators in Drosophila S3 Cells;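 for cell number change: cells counted by Cell Tracker Red CMTPX staining in the red channel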
Conditions: BODIPY lipid droplet fluorescence, 18-24 h; for cell number change: measured here: cell count max response, cells fed with added oleic acid
How it was run: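 Laser-scanning cytometry quantifies lipid droplet accumulation (500–530 nm total intensity; droplet/cell object ratio) in oleic acid-fed (400 uM added) Drosophila S3 cells treated with a concentration series. 20 uM Triacsin C defined 100% inhibition.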

[1] = measured here: lipid fluorescence (Fed channel) AC50, cells fed with added oleic acid
[2] = measured here: cell number channel AC50, cells fed with added oleic acid

Compound	cell number change [%]	AC50 [1]	AC50 [2]
COc1cccc(NC(=O)COc2coc(CN3CCN(c4ccccc4)CC3)cc2=O)c1	10.3		
O=C(Nc1cccc(C(F)(F)F)c1)c1cc2c(s1)-c1ccccc1OC2	-14.7	29.1 µM [falling, single point]	
CC(C)c1nc(SCC(=O)Nc2cccc(S(N)(=O)=O)c2)n[nH]1	-37.1		29.1 µM [falling, single point]
Cc1ccc(NC(=O)Nc2cccc(Cl)c2)c(C(=O)O)c1	-45.8		29.1 µM [falling, single point]
CCN(CC)CCN(C(=O)c1ccc(N2C(=O)CCC2=O)cc1)c1nc2cc3c(cc2s1)OCO3	-54.1	0.0517 µM [falling, full curve, poor fit]	2.91 µM [falling, partial curve, poor fit]
Cn1cc([N+](=O)[O-])c(C(=O)NCc2ccco2)n1	11.2		
Cn1cnc2c1c(=O)n(Cc1c(Cl)cccc1Cl)c(=O)n2C	-7.43		
O=C(CSc1nnc(-c2cccs2)n1-c1ccccc1)NCC1CCCO1 (configuration not stated)	11.4	29.1 µM [rising, single point]	
Cn1c(=O)c(C(=O)CN2CCCCCC2)c(N)n(Cc2ccccc2)c1=O	-1.29	0.116 µM [falling, full curve]	0.082 µM [falling, full curve]
COc1cc(C(=O)NCC2(N(C)C)CCCCC2)ccc1OCc1ccccc1	34.2	16.4 µM [rising, partial curve]	7.31 µM [rising, partial curve, poor fit]
O=C(Cn1cc(C(=O)C2CC2)c2ccccc21)Nc1ccc(F)cc1	33		
COc1ccc(NC(=S)NC(NC(=O)C(C)C)C(Cl)(Cl)Cl)c([N+](=O)[O-])c1 (configuration not stated)	-22.2	14.6 µM [falling, partial curve, poor fit]	
O=C(NCCOc1ccccc1)C1CCC(=O)N(C2CCCCCC2)C1 (configuration not stated)		29.1 µM [falling, single point]	2.06 µM [falling, partial curve]
CC(CCc1ccco1)NC(=O)CSc1cc(=O)n(C)c2ccccc12 (configuration not stated)	42	11.6 µM [rising, partial curve, poor fit]	6.51 µM [rising, partial curve, poor fit]
Cc1c(/C=N/NC(=O)C(C)(C)Oc2ccc(Cl)cc2)cnn1C	0.155		0.291 µM [falling, full curve, poor fit]
Cc1nn(C)c(Cl)c1NC(=O)OCc1ccc(Cl)cc1Cl	-22	18.4 µM [falling, single point]	
Cc1ccc(C)c(N=Cc2c(O)c3ccccc3oc2=O)c1	-4.4		
Cc1ccc(C)c(CSc2nnc(-c3ccccn3)n2N)c1	-28.8		
Clc1ccc(-c2nnc(COc3ncnc4ccccc34)o2)cc1	53.1	29.1 µM [rising, single point]	29.1 µM [rising, single point]

An excerpt of these results, bar-delimited:
Compound | cell number change [%] | AC50 [1] | AC50 [2]
Cn1cc([N+](=O)[O-])c(C(=O)NCc2ccco2)n1 | 11.2 |  | 
O=C(CSc1nnc(-c2cccs2)n1-c1ccccc1)NCC1CCCO1 (configuration not stated) | 11.4 | 29.1 µM [rising, single point] | 
Cc1ccc(C)c(CSc2nnc(-c3ccccn3)n2N)c1 | -28.8 |  | 

Following part.

Compound	cell number change [%]	AC50 [1]	AC50 [2]
CC(C)C(=O)N1CCN(c2ccccc2NC(=S)NC(=O)c2cccs2)CC1	14.5	29.1 µM [falling, partial curve]	
O=C(COC(=O)c1cc([N+](=O)[O-])ccc1N1CCOCC1)Nc1cccc(F)c1	-12.4		
CC(C)(C)CC(=O)NCCCCCCNC(=O)CC(C)(C)C	37.4		29.1 µM [rising, single point]
CCN1CCN(Cc2ccc(NC(=O)c3cc(NC(=O)c4cncc(-c5ccc(C#N)cc5)c4)cc(OC)c3)cc2C(F)(F)F)CC1	-68.7	18.4 µM [falling, partial curve]	14.6 µM [falling, partial curve]
O=C(NCc1ccc2c(c1)OCO2)c1ccc2c(c1)N(Cc1c(F)cccc1Cl)C(=O)CS2	-13.9	0.461 µM [rising, full curve]	
CCCc1nnc(SCC(=O)Nc2cccc(C(F)(F)F)c2)o1	19.7	0.116 µM [rising, full curve, poor fit]	
CCCCSc1nc(C)c(CC(=O)O)c(=O)[nH]1	0.696	0.92 µM [falling, full curve]	
O=C(N(c1ccccn1)c1ccccn1)C12CC3CC(CC(C3)C1)C2	-28.7	29.1 µM [falling, partial curve, poor fit]	
CCOc1ccc(-c2nnc(-c3cccnc3)o2)cc1OCC	-9.79	0.00461 µM [rising, full curve, poor fit]	
COc1ccc(OC)c(NC(=O)c2cc(S(=O)(=O)N(C)C)ccc2N2CCCC2)c1	-1.18		
CC1=CC(C)[C@@H]2COC(c3ccc(O)cc3)[C@H]1C2C (some centres not stated)	-55.7	14.6 µM [falling, partial curve, poor fit]	8.2 µM [falling, partial curve]
Cc1cccc(C)c1NC(=S)N1CCC(N(C)CC2CCCO2)CC1 (configuration not stated)		23.1 µM [falling, partial curve]	
O=C(NC1CCSC1=O)C1CC(=O)N(c2ccc(F)cc2)C1 (configuration not stated)	9.57	29.1 µM [rising, partial curve]	
O=C(Nc1ccc(C(=O)c2ccc(C(=O)O)c(C(=O)O)c2)cc1)c1ccccc1	19.8	29.1 µM [falling, single point]	
Cc1cc(-c2ccccc2)n(-c2cc(N/N=C/c3ccccc3O)ncn2)n1	3.92	4.11 µM [falling, full curve]	6.51 µM [falling, single point]
CC(=O)c1cc(CN2C(=O)c3ccccc3C2=O)cs1	-1.44	0.517 µM [rising, full curve]	0.517 µM [rising, full curve]
CC1=C(CO)C(=O)OC([C@@H](C)C2CC[C@H]3C4C[C@H]5O[C@]56[C@@H](O)C=CC(=O)[C@]6(C)C4CC[C@]23C)C1 (some centres not stated)	-66.1	32.6 µM [falling, single point]	29.1 µM [falling, single point]
CC(=O)c1cnn(-c2cc(Oc3cccc(C)c3)ncn2)c1C	0.13		
CCn1c(=O)n(CC)c2cc(S(N)(=O)=O)c(C)cc21	-14.2	0.651 µM [falling, full curve]	

Compound	cell number change [%]	AC50 [1]	AC50 [2]
COc1ccc(C(C#N)Nc2ccc(C)cc2)cc1 (configuration not stated)	18.9	18.4 µM [falling, partial curve]	
Cc1c(NC(=O)Oc2ccccc2)sc(=S)n1C	12.8	6.51 µM [falling, single point]	
COc1cc(OC)c(C(=O)O/N=C(\N)c2ccccc2)cc1OC	4.63		0.00517 µM [rising, full curve, poor fit]
CC1Cc2ccccc2N1C(=O)CN1C(=O)CN(C)C(=O)c2ccccc21 (configuration not stated)	16.5		
Clc1ccsc1-c1ccnc(-n2cccc2)n1	-21.5	0.461 µM [falling, full curve]	0.58 µM [falling, full curve]
CN1CCN(c2oc(Cc3cccc4ccccc34)nc2C#N)CC1	18.2	23.1 µM [rising, single point]	
O=c1c2[nH]cnc2n(-c2ccccc2)c(=O)n1Cc1ccccc1	-23.6	29.1 µM [rising, single point]	
O=C(CN1C(=O)c2ccccc2S1(=O)=O)N1CCN(c2ccc(F)cc2)CC1	27.1	6.51 µM [rising, single point]	
CC1(C)CC(=O)C2=C(C1)NC(=O)CC2C(=O)NCc1ccc(F)cc1 (configuration not stated)	-98.8	7.31 µM [falling, single point]	18.4 µM [falling, partial curve]
COc1ccc(-c2nc3c(c(SCC(=O)Nc4cccc(O)c4)n2)Cc2c(CO)cnc(C)c2O3)cc1	-30.1	13 µM [falling, partial curve]	8.2 µM [falling, partial curve, poor fit]
O=C(Nc1cccc(Cl)c1)N1CCN(C/C=C/c2ccccc2)CC1	-17	29.1 µM [rising, single point]	
COc1ccc(CCNC(=O)CCC(=O)N2CCN(S(=O)(=O)c3ccc(Cl)cc3)CC2)cc1OC	-15.1	0.103 µM [rising, full curve, poor fit]	6.51 µM [falling, single point]
CC(Sc1nnc(C(F)(F)F)n1C)C(=O)Nc1ccc(S(N)(=O)=O)cc1 (configuration not stated)	-18.1	0.411 µM [falling, partial curve, poor fit]	0.411 µM [falling, single point]
CC(C(=O)Nc1nncs1)N1C(=O)C2C3C=CC(C3)C2C1=O (configuration not stated)	-18.1	6.51 µM [falling, partial curve]	
Cc1cc(C)n(CCNC(=O)C2CCC(=O)N(Cc3ccc(Cl)cc3)C2)n1 (configuration not stated)	5.2		
Cc1ccc(N(CC(=O)O)S(=O)(=O)c2cccc3nonc23)cc1	5.73	0.13 µM [falling, full curve, poor fit]	
Cc1cc2ncn(/N=C/c3ccc(-c4ccccc4)o3)c2cc1C	-69		10.3 µM [falling, partial curve, poor fit]
N#C/C(=N\Nc1cccc(C(F)(F)F)c1)C(=O)c1csc(-c2cccnc2)n1	-39.2	29.1 µM [falling, single point]	
C=Cc1ccc(N=Cc2c(O)ccc3ccccc23)cc1	-4.26	0.13 µM [falling, full curve, poor fit]	
